PubChem BioAssay AID1259308 | NCATS – 2017
Here is one part, drawn at random, of about 59,000 reagents. Over the whole deposit, about 1,510 (2.6%) are marked active. 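Calls use total luciferase alone and ignore viability, so some active siRNAs may act by altering cell number.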 Reagents against one gene are numbered here. No sequences are given here.

Aim: 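Knock-downs that increase output of a recombinant reporter protein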 (primary screen)
Cell system: human HEK293 embryonic kidney cells stably expressing firefly luciferase (HEK-CMV-Luc2-Hygro)
Reagents: single siRNA against human genes, 0.8 pmol siRNA per well
Duration: 72 h
Measurement: 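Luciferase light (ONE-Glo) measured on one replicate plate set and viability (CellTiter-Glo) on the other, scaled to a negative control siRNA, with robust z-scores and luciferase per cell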
Direction: total luciferase, z-score and total luciferase, % of control: higher = more reporter protein produced; luciferase per cell, z-score: higher = more reporter output per viable cell; viable cells, % of control: higher = more viable cells
Active means: 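An siRNA counts as active if its total luciferase robust z-score exceeds 3; genes with two or more such siRNAs out of three were retested with fresh siRNAs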
Calls: active = raised luciferase; inactive = no rise

The first 3 entries, ahead of the listing:
| gene knocked down | siRNA no. | total luciferase, z-score | total luciferase, % of control | luciferase per cell, z-score | viable cells, % of control | Call |
| --- | --- | --- | --- | --- | --- | --- |
| GNG4 | 1 | -0.0351 | 81.2 | -0.669 | 108 | inactive |
| GNG4 | 2 | -1.41 | 53.8 | -0.969 | 77.6 | inactive |
| GNG4 | 3 | -0.682 | 68.3 | -1.25 | 106 | inactive |

Main list, from the first entry:
| gene knocked down | siRNA no. | total luciferase, z-score | total luciferase, % of control | luciferase per cell, z-score | viable cells, % of control | Call |
| --- | --- | --- | --- | --- | --- | --- |
| GNG4 | 1 | -0.0351 | 81.2 | -0.669 | 108 | inactive |
| GNG4 | 2 | -1.41 | 53.8 | -0.969 | 77.6 | inactive |
| GNG4 | 3 | -0.682 | 68.3 | -1.25 | 106 | inactive |
| KLHL26 | 1 | -0.619 | 69.6 | -0.0672 | 79.1 | inactive |
| KLHL26 | 2 | -1.29 | 56.2 | -1.65 | 96.8 | inactive |
| KLHL26 | 3 | 0.936 | 100 | 0.162 | 108 | inactive |
| PDE4DIPP6 | 1 | 2 | 122 | 0.685 | 114 | inactive |
| PDE4DIPP6 | 2 | -0.239 | 77.1 | 0.501 | 75.6 | inactive |
| PDE4DIPP6 | 3 | -0.505 | 71.8 | -0.53 | 92.3 | inactive |
| GLMP | 1 | 1.76 | 117 | 1.29 | 92.9 | inactive |
| GLMP | 2 | 0.433 | 90.5 | 0.293 | 93.6 | inactive |
| GLMP | 3 | 1.36 | 109 | 0.837 | 97.6 | inactive |
| GNAI1 | 1 | 1.29 | 108 | 1.39 | 83.3 | inactive |
| GNAI1 | 2 | 0.484 | 91.5 | 0.5 | 89.6 | inactive |
| GNAI1 | 3 | 0.207 | 86 | 0.816 | 77.5 | inactive |
| ZNF610 | 1 | -0.524 | 71.5 | -0.088 | 81.7 | inactive |
| ZNF610 | 2 | -0.075 | 80.4 | 0.912 | 70.7 | inactive |
| ZNF610 | 3 | 0.882 | 99.4 | 0.175 | 106 | inactive |
| BOP1 | 1 | 1.6 | 114 | 2.01 | 74.8 | inactive |
| BOP1 | 2 | -1.14 | 59.1 | -0.838 | 82.4 | inactive |
| BOP1 | 3 | -0.698 | 68 | -0.14 | 78.8 | inactive |
| PF4V1 | 1 | -0.184 | 78.2 | -0.764 | 107 | inactive |
| PF4V1 | 2 | -0.351 | 74.9 | -0.367 | 92.2 | inactive |
| PF4V1 | 3 | -1.31 | 55.9 | -0.673 | 74.5 | inactive |
